# Article PMC5769767
# Sequences of proteins named here, by UniProt entry; tags and fusion partners are left off. A change or cut given only in a name is not applied to a line headed by its entry. Residues count along the entry.
# UniProt P52948, residues 1-504: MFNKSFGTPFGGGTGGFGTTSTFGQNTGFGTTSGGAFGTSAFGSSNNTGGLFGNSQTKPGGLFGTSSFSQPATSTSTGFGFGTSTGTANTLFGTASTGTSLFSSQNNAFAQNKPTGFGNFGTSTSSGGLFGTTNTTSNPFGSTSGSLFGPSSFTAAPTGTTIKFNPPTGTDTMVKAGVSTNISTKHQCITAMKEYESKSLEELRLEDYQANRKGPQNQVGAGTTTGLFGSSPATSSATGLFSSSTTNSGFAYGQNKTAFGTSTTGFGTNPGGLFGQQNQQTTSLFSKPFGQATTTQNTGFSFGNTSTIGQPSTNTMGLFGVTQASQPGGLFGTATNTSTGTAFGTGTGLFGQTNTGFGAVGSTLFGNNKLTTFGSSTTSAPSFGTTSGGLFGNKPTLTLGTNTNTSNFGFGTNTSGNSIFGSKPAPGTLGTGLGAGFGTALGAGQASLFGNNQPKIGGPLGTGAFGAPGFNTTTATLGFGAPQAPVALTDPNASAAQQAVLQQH
# UniProt Q8BFQ4: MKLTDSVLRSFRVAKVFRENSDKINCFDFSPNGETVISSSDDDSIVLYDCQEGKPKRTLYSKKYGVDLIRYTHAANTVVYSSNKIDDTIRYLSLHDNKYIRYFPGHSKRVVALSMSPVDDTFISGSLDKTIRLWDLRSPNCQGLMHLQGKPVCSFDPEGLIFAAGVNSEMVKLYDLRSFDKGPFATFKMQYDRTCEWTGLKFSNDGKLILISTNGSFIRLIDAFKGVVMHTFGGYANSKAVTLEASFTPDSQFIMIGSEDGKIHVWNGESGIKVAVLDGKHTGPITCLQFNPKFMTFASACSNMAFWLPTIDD
# Results are given in words; binding and its absence hold for the method and conditions named. Binding seen in cells or lysates may run through a third protein. Here binding means that the protein was enriched with, or labelled near, the bait; the list need not be complete.
# Biological target: GFP-tagged human Nup98ΔCTD (amino acids 1–504) (human) (UniProt P52948)
# Assay: affinity purification with mass spectrometry; GFP-Nup98ΔCTD captured on GFP-Trap beads from RAW 264.7 lysate (0.1% Triton X-100, 0.25% sodium deoxycholate, 150 mM NaCl, 1 mM EDTA, 10 mM Tris pH 7.5), 2–4 h, four washes in Net-2 buffer; SDS-PAGE gel pieces analysed by mass spectrometry; GFP alone as control
row,binding,Molecule
1,binds,Wdr82 (from UniProt Q8BFQ4 1-313)
2,binds,"Nxf1 (protein, UniProt Q99JX7 1-618) MADEGKSYNEHDDRVSFPQRRKKGRGPFRWKCGEGNRRSGRGGSGVQSSRFEEDDGDVAMNDPQDGPRVRYNPYTNRPNRRGDGWHDRDRIHITVRRDRAPAERGGAGTSQDGTTKNWFKITIPYGRKYDKTWLLSMIQSKCSVPFNPIEFHYENTRAHFFVEDATTASALKGVNHKIQDRENRRISIIINASAPPYTVQNELKPEQIEQLKLIMSKRYDGNQQALDLKGLRSDPDLVAQNIDVVLNRRSCMAATLRIIEENIPELLSLNLSSNRLYKLDDMSSIVQKAPNLKTLNLSGNELKTERELDKIKGLKLEELWLDRNPMCDNFGDQSSYISAIRERFPKLLRLDGHELPPPISFDVEAPTMLPPCKGSYFGTENLKSLVLRFLQQYYVIYDSGDRQGLLYAYHDGACCSLSIPYNPQNPVRKNLAEYVKDSRNVKKLKEPTQRFRLLKHTRLNVVAFLNELPKTQHDVNAFVVDISAQTSTLLCFSVNGVFKEVDGKSRDSLRAFTRTFIAVPASNSGLCIVNDELFVRNASPEEIQRAFAMSAPTPSSSPVPTLSPEQQEMLQAFSTQSGMNLEWSQKCLQDNNWDYTRSAQAFTLLKAKGEIPEVAFMK"
3,binds,"Rae1 (protein, UniProt Q8C570 1-368) MSLFGSTSGFGTGGTSMFGSTTTDNHNPMKDIEVTSSPDDSIGCLSFSPPTLPGNFLIAGSWANDVRCWEVQDSGQTIPKAQQMHTGPVLDVCWSDDGSKVFTASCDKTAKMWDLNSNQAIQIAQHDAPVKTIHWIKAPNYSCVMTGSWDKTLKFWDTRSSNPMMVLQLPERCYCADVIYPMAVVATAERGLIVYQLENQPSEFRRIESPLKHQHRCVAIFKDKQNKPTGFALGSIEGRVAIHYINPPNPAKDNFTFKCHRSNGTNTSAPQDIYAVNGIAFHPVHGTLATVGSDGRFSFWDKDARTKLKTSEQLDQPIAACCFNHNGNIFAYASSYDWSKGHEFYNPQKKNYIFLRNAAEELKPRNKK"
